Results from the supplement of paper PMC8149375.
Values belong to the compound of their own block, whether it stands above or below them.

Experiments:
769-P [1] = test: GI50, drug alone; higher = less potent; settings: treatment: drug alone; 5 days
Experimental: (§1)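 Primary HTS: 8 RCC cell lines treated with 8 doses (up to 10 uM) of each library drug alone for 5 days; viability read by CellTiter-Glo and normalised to DMSO. GI50 was fitted with XLfit (4-parameter), AUC is the area under the dose-response curve, and minimum viability is the lowest fraction of DMSO viability across doses.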

786-O [2] = test: GI50, drug alone; higher = less potent; settings: treatment: drug alone; 5 days
Experimental: as §1

A498 [3] = test: GI50, drug alone; higher = less potent; settings: treatment: drug alone; 5 days
Experimental: as §1

ACHN [4] = test: GI50, drug alone; higher = less potent; settings: treatment: drug alone; 5 days
Experimental: as §1

CAKI-1 [5] = test: GI50, drug alone; higher = less potent; settings: treatment: drug alone; 5 days
Experimental: as §1

SN12C [6] = test: GI50, drug alone; higher = less potent; settings: treatment: drug alone; 5 days
Experimental: as §1

TK-10 [7] = test: GI50, drug alone; higher = less potent; settings: treatment: drug alone; 5 days
Experimental: as §1

UO-31 [8] = test: GI50, drug alone; higher = less potent; settings: treatment: drug alone; 5 days
Experimental: as §1

769-P [9] = test: minimum viability across doses, drug alone, relative to DMSO (fraction); higher = less growth inhibition; settings: treatment: drug alone; 5 days
Experimental: as §1

786-O [10] = test: as above; settings: treatment: drug alone; 5 days
Experimental: as §1

A498 [11] = test: as above; settings: treatment: drug alone; 5 days
Experimental: as §1

ACHN [12] = test: as above; settings: treatment: drug alone; 5 days
Experimental: as §1

CAKI-1 [13] = test: as above; settings: treatment: drug alone; 5 days
Experimental: as §1

SN12C [14] = test: as above; settings: treatment: drug alone; 5 days
Experimental: as §1

TK-10 [15] = test: as above; settings: treatment: drug alone; 5 days
Experimental: as §1

UO-31 [16] = test: as above; settings: treatment: drug alone; 5 days
Experimental: as §1

769-P [17] = test: AUC of dose-response viability curve, drug alone (arbitrary (AUC of normalised viability)); higher = less growth inhibition; settings: treatment: drug alone; 5 days
Experimental: as §1

786-O [18] = test: as above; settings: treatment: drug alone; 5 days
Experimental: as §1

A498 [19] = test: as above; settings: treatment: drug alone; 5 days
Experimental: as §1

ACHN [20] = test: as above; settings: treatment: drug alone; 5 days
Experimental: as §1

SN12C [21] = test: as above; settings: treatment: drug alone; 5 days
Experimental: as §1

TK-10 [22] = test: as above; settings: treatment: drug alone; 5 days
Experimental: as §1

UO-31 [23] = test: as above; settings: treatment: drug alone; 5 days
Experimental: as §1

769-P [24] = test: GI50 of drug in presence of dasatinib; higher = less potent; settings: treatment: drug + dasatinib (fixed dose, not stated); 5 days
Experimental: as §1, with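 “HTS combination arm:” for “HTS:”, “plus a fixed dose of dasatinib (dose not stated)” for “alone”, “XLfit,” for “XLfit (4-parameter),”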

786-O [25] = test: as above; settings: treatment: drug + dasatinib (fixed dose, not stated); 5 days
Experimental: as §1, with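 “HTS combination arm:” for “HTS:”, “plus a fixed dose of dasatinib (dose not stated)” for “alone”, “XLfit,” for “XLfit (4-parameter),”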

A498 [26] = test: as above; settings: treatment: drug + dasatinib (fixed dose, not stated); 5 days
Experimental: as §1, with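 “HTS combination arm:” for “HTS:”, “plus a fixed dose of dasatinib (dose not stated)” for “alone”, “XLfit,” for “XLfit (4-parameter),”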

ACHN [27] = test: as above; settings: treatment: drug + dasatinib (fixed dose, not stated); 5 days
Experimental: as §1, with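 “HTS combination arm:” for “HTS:”, “plus a fixed dose of dasatinib (dose not stated)” for “alone”, “XLfit,” for “XLfit (4-parameter),”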

CAKI-1 [28] = test: as above; settings: treatment: drug + dasatinib (fixed dose, not stated); 5 days
Experimental: as §1, with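 “HTS combination arm:” for “HTS:”, “plus a fixed dose of dasatinib (dose not stated)” for “alone”, “XLfit,” for “XLfit (4-parameter),”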

SN12C [29] = test: as above; settings: treatment: drug + dasatinib (fixed dose, not stated); 5 days
Experimental: as §1, with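 “HTS combination arm:” for “HTS:”, “plus a fixed dose of dasatinib (dose not stated)” for “alone”, “XLfit,” for “XLfit (4-parameter),”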

TK-10 [30] = test: as above; settings: treatment: drug + dasatinib (fixed dose, not stated); 5 days
Experimental: as §1, with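 “HTS combination arm:” for “HTS:”, “plus a fixed dose of dasatinib (dose not stated)” for “alone”, “XLfit,” for “XLfit (4-parameter),”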

UO-31 [31] = test: as above; settings: treatment: drug + dasatinib (fixed dose, not stated); 5 days
Experimental: as §1, with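 “HTS combination arm:” for “HTS:”, “plus a fixed dose of dasatinib (dose not stated)” for “alone”, “XLfit,” for “XLfit (4-parameter),”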

769-P [32] = test: minimum viability across doses, drug + dasatinib, relative to DMSO (fraction); higher = less growth inhibition; settings: treatment: drug + dasatinib (fixed dose, not stated); 5 days
Experimental: as §1, with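 “HTS combination arm:” for “HTS:”, “plus a fixed dose of dasatinib (dose not stated)” for “alone”, “XLfit,” for “XLfit (4-parameter),”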

786-O [33] = test: as above; settings: treatment: drug + dasatinib (fixed dose, not stated); 5 days
Experimental: as §1, with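 “HTS combination arm:” for “HTS:”, “plus a fixed dose of dasatinib (dose not stated)” for “alone”, “XLfit,” for “XLfit (4-parameter),”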

A498 [34] = test: as above; settings: treatment: drug + dasatinib (fixed dose, not stated); 5 days
Experimental: as §1, with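 “HTS combination arm:” for “HTS:”, “plus a fixed dose of dasatinib (dose not stated)” for “alone”, “XLfit,” for “XLfit (4-parameter),”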

ACHN [35] = test: as above; settings: treatment: drug + dasatinib (fixed dose, not stated); 5 days
Experimental: as §1, with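 “HTS combination arm:” for “HTS:”, “plus a fixed dose of dasatinib (dose not stated)” for “alone”, “XLfit,” for “XLfit (4-parameter),”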

CAKI-1 [36] = test: as above; settings: treatment: drug + dasatinib (fixed dose, not stated); 5 days
Experimental: as §1, with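 “HTS combination arm:” for “HTS:”, “plus a fixed dose of dasatinib (dose not stated)” for “alone”, “XLfit,” for “XLfit (4-parameter),”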

SN12C [37] = test: as above; settings: treatment: drug + dasatinib (fixed dose, not stated); 5 days
Experimental: as §1, with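 “HTS combination arm:” for “HTS:”, “plus a fixed dose of dasatinib (dose not stated)” for “alone”, “XLfit,” for “XLfit (4-parameter),”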

TK-10 [38] = test: as above; settings: treatment: drug + dasatinib (fixed dose, not stated); 5 days
Experimental: as §1, with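 “HTS combination arm:” for “HTS:”, “plus a fixed dose of dasatinib (dose not stated)” for “alone”, “XLfit,” for “XLfit (4-parameter),”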

UO-31 [39] = test: as above; settings: treatment: drug + dasatinib (fixed dose, not stated); 5 days
Experimental: as §1, with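 “HTS combination arm:” for “HTS:”, “plus a fixed dose of dasatinib (dose not stated)” for “alone”, “XLfit,” for “XLfit (4-parameter),”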

769-P [40] = test: AUC of dose-response viability curve, drug + dasatinib, normalised to DMSO (arbitrary (AUC of normalised viability)); higher = less growth inhibition; settings: treatment: drug + dasatinib (fixed dose, not stated); 5 days
Experimental: as §1, with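 “HTS combination arm:” for “HTS:”, “plus a fixed dose of dasatinib (dose not stated)” for “alone”, “XLfit,” for “XLfit (4-parameter),”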

A498 [41] = test: as above; settings: treatment: drug + dasatinib (fixed dose, not stated); 5 days
Experimental: as §1, with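 “HTS combination arm:” for “HTS:”, “plus a fixed dose of dasatinib (dose not stated)” for “alone”, “XLfit,” for “XLfit (4-parameter),”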

ACHN [42] = test: as above; settings: treatment: drug + dasatinib (fixed dose, not stated); 5 days
Experimental: as §1, with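 “HTS combination arm:” for “HTS:”, “plus a fixed dose of dasatinib (dose not stated)” for “alone”, “XLfit,” for “XLfit (4-parameter),”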

SN12C [43] = test: as above; settings: treatment: drug + dasatinib (fixed dose, not stated); 5 days
Experimental: as §1, with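 “HTS combination arm:” for “HTS:”, “plus a fixed dose of dasatinib (dose not stated)” for “alone”, “XLfit,” for “XLfit (4-parameter),”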

TK-10 [44] = test: as above; settings: treatment: drug + dasatinib (fixed dose, not stated); 5 days
Experimental: as §1, with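 “HTS combination arm:” for “HTS:”, “plus a fixed dose of dasatinib (dose not stated)” for “alone”, “XLfit,” for “XLfit (4-parameter),”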

UO-31 [45] = test: as above; settings: treatment: drug + dasatinib (fixed dose, not stated); 5 days
Experimental: as §1, with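 “HTS combination arm:” for “HTS:”, “plus a fixed dose of dasatinib (dose not stated)” for “alone”, “XLfit,” for “XLfit (4-parameter),”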

GI50, drug alone (786-O [2]): > 10 µM | GI50, drug alone (ACHN [4]): > 10 µM
Compound: Cc1ccccc1-n1c(Cn2nc(-c3cccc(O)c3)c3c(N)ncnc32)nc2cccc(C)c2c1=O [PIK-294]
GI50, drug alone (769-P [1]): > 10 µM | GI50, drug alone (A498 [3]): > 10 µM | GI50, drug alone (CAKI-1 [5]): > 10 µM | GI50, drug alone (SN12C [6]): > 10 µM | GI50, drug alone (TK-10 [7]): > 10 µM | GI50, drug alone (UO-31 [8]): > 10 µM | minimum viability across doses (769-P [9]): 0.882 | minimum viability across doses (786-O [10]): 0.689 | minimum viability across doses (A498 [11]): 0.845 | minimum viability across doses (ACHN [12]): 0.561 | minimum viability across doses (CAKI-1 [13]): 0.598 | minimum viability across doses (SN12C [14]): 0.897 | minimum viability across doses (TK-10 [15]): 0.703 | minimum viability across doses (UO-31 [16]): 1.28 | AUC of dose-response viability curve (769-P [17]): 3.34 | AUC of dose-response viability curve (786-O [18]): 2.77 | AUC of dose-response viability curve (A498 [19]): 3.98 | AUC of dose-response viability curve (ACHN [20]): 3.28 | AUC of dose-response viability curve (SN12C [21]): 3.47 | AUC of dose-response viability curve (TK-10 [22]): 3.21 | AUC of dose-response viability curve (UO-31 [23]): 5.65

GI50 of drug (786-O [25]): 1.01 µM | GI50 of drug (ACHN [27]): 1.28 µM
Compound: Cc1ccccc1-n1c(Cn2nc(-c3cccc(O)c3)c3c(N)ncnc32)nc2cccc(C)c2c1=O [PIK-294] + Cc1nc(Nc2ncc(C(=O)Nc3c(C)cccc3Cl)s2)cc(N2CCN(CCO)CC2)n1 [dasatinib]
GI50 of drug (769-P [24]): 3.67 µM | GI50 of drug (A498 [26]): > 10 µM | GI50 of drug (CAKI-1 [28]): 1.27 µM | GI50 of drug (SN12C [29]): > 10 µM | GI50 of drug (TK-10 [30]): > 10 µM | GI50 of drug (UO-31 [31]): 9.93 µM | minimum viability across doses (769-P [32]): 0.333 | minimum viability across doses (786-O [33]): 0.367 | minimum viability across doses (A498 [34]): 0.826 | minimum viability across doses (ACHN [35]): 0.36 | minimum viability across doses (CAKI-1 [36]): 0.273 | minimum viability across doses (SN12C [37]): 0.645 | minimum viability across doses (TK-10 [38]): 0.647 | minimum viability across doses (UO-31 [39]): 0.495 | AUC of dose-response viability curve (769-P [40]): 2.35 | AUC of dose-response viability curve (A498 [41]): 3.32 | AUC of dose-response viability curve (ACHN [42]): 2.09 | AUC of dose-response viability curve (SN12C [43]): 2.47 | AUC of dose-response viability curve (TK-10 [44]): 2.54 | AUC of dose-response viability curve (UO-31 [45]): 3.99
